Laboratory results reported in patent US20190119385A1.
These are yes or no findings as the source states them, for the method shown. Some binding calls cover weakened binding; strength is not graded here.

Key:
[1] = molecular target: human HLA-G expressed on cells (JEG-3 trophoblastic carcinoma, SKOV3, papillary thyroid carcinoma tissue) (human) (UniProt P17693); assay: flow cytometry, hybridoma supernatant on JEG-3 cells
[2] = molecular target: HLA Class I Histocompatibility Antigen, alpha chain G antigen, recombinant, HIS Tag (MybioSource MBS717410) (human) (UniProt P17693); assay: ELISA, hybridoma supernatant on antigen coated plates
[3] = molecular target: human HLA-G expressed on cells (JEG-3 trophoblastic carcinoma, SKOV3, papillary thyroid carcinoma tissue) (human) (UniProt P17693); assay: flow cytometry screening of monoclonal antibodies to human HLA-G (FIG. 1)
[4] = molecular target: human HLA-G expressed on cells (JEG-3 trophoblastic carcinoma, SKOV3, papillary thyroid carcinoma tissue) (human) (UniProt P17693); assay: immunohistochemistry with antigen retrieval, papillary thyroid carcinoma tissue
[5] = molecular target: human HLA-G expressed on cells (JEG-3 trophoblastic carcinoma, SKOV3, papillary thyroid carcinoma tissue) (human) (UniProt P17693); assay: immunohistochemistry, papillary thyroid carcinoma section (FIG. 2A)

Measured: binding

B1: 3H11 (antibody, V domains shown)
VH: QVQLQESGAELVKPGASVKLSCTASGFNIKDTYMHWVKQRPEQGLEWIGRIDPANGNTKYDPKFQGKATITADTSSNTAYLQLSSLTSEDTAVYYCARSYYGGFAYWGQGTLVTVSA
VL: DIVLTQSPASLAVSLGQRATISCRASKSVSTSGYSYMHWYQQKPGQPPKLLIYLVSNLESGVPARFSGSGSGTDFTLNIHPVEEEDAATYYCQHSRELPRTFGGGTKLEIK
binds: [1] | [2] | [3]

B2: HLA-G 4E3 (antibody, V domains shown)
VH: EVQLQESGGGLVQPKGSLKLSCAAFGFTFNTYAMHWVRQAPGKGLEWVARIRSKSNNYATYYADSVKDRFTISRDDSQSMLSLQMNNLKTEDTAIYYCVRGGYWSFDVWGAGTTVTVSS
VL: DIVITQTTPSVPVTPGESVSISCRSSKSLLHSNGNTYLYWFLQRPGQSPQLLISRMSSLASGVPDRFSGSGSGTAFTLRISRVEAEDVGVYYCMQHLEYPYTFGGGTKLEIK
binds: [4] | [1] | [5] | [2] | [3]
